Measured values reported in PubChem BioAssay AID1439 (NMMLSC, 2008).
The campaign covered roughly 220,000 compounds. About 770 (0.35%) were called active. The inconclusive results got no clear call from the source; some entries with a clear call stand among them for comparison. No stated cut-off is given here; in the data, active means binding response below about 49% or above about 150%; inconclusive means no clear call, values can overlap the other calls; inactive means in between.

Amino acid sequences for entries named in this document (tags omitted).
UniProt P09471, whole entry, looked up: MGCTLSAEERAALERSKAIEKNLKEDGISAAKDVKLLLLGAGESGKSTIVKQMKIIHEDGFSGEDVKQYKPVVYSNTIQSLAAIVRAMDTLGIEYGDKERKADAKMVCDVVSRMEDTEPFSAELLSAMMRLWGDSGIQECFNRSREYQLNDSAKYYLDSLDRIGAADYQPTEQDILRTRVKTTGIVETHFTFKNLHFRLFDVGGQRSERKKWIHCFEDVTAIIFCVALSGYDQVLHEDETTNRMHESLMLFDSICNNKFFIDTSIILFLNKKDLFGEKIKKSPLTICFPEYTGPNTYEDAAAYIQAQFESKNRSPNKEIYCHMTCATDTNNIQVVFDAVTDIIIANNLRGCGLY

These molecules were tested against Guanine nucleotide-binding protein G(o) subunit alpha (Homo sapiens) (UniProt P09471) (assay: RGS7-Galphao binding modulators, primary screen, biochemical, multiplexed bead flow cytometry (AID 1439;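 further: fluorescent Galphao held in activated GDP-AlF4 state binding bead-coupled RGS7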)). Details: at 10 µM, actives lie on both sides.
`COc1ccc(C2c3ccc(O)cc3Oc3ncn(Cc4ccccc4)c(=N)c32)cc1OC` (stereo not given) was tested, and the binding response (% of control) was inconclusive: 417%. In the case of `CC12CCC(C(=O)N(CCCCN3CCN(Cc4ccccc4)CC3)C1=O)C2(C)C` (stereo not given), the binding response (% of control) is reported as inconclusive: 106%. With `CC(C)CNC(=O)c1ccc(Cl)c(Cl)c1` the binding response (% of control) was inactive: 96.4%. `CSc1scc2c1-c1nc(SCC(=O)C(C)(C)C)ncc1CC2` was tested, and the binding response (% of control) was inconclusive: 128%. For `CCN1CCN(C(=O)CCN2C(=O)c3ccccc3C2=O)CC1`, the binding response (% of control) was inconclusive: 117%. For `Cc1cc(C(=O)NC2=NCCS2)c2ccccc2n1`, the binding response (% of control) was inconclusive: 75.2%. `CCC(=O)Nc1cccc(-c2cn3cccc(C)c3n2)c1` was tested, and the binding response (% of control) was inconclusive: 39.8%. With `COc1ccc(C2CC(=O)Oc3c(C(CCN4CCOCC4)c4cc(OC)c(OC)c(OC)c4)c(OC)cc(OC)c32)cc1` (stereo not given) the binding response (% of control) was inconclusive: 102%. In the case of `CCOC(=O)C1CCN(C(=O)c2ccc(N(C)S(=O)(=O)c3ccc(OC)cc3)cc2)CC1`, the binding response (% of control) is reported as inactive: 96.4%. For `O=C(N/N=C/c1ccc(-c2ccc([N+](=O)[O-])cc2)o1)[C@H]1C[C@@H]1c1ccccc1`, the binding response (% of control) was inconclusive: 113%. `NC(=S)Nc1cccc(O)c1` was tested, and the binding response (% of control) was inconclusive: 107%. In the case of `CN1CCN(c2ccc(Cl)cc2NC(=O)/C=C/c2cccc(F)c2)CC1`, the binding response (% of control) is reported as inconclusive: 94.4%. For `CS(=O)(=O)N(CC(=O)Nc1ccc(S(=O)(=O)N2CCCC2)cc1)c1cccc(F)c1`, the binding response (% of control) was inconclusive: 107%. With `COc1ccc(N(C(=O)c2ccncc2)S(=O)(=O)c2cccs2)cc1` the binding response (% of control) was inconclusive: 136%. With `COc1nccnc1NS(=O)(=O)c1ccc(N/C=C2\CCCCC2=O)cc1` the binding response (% of control) was inconclusive: 99.3%. In the case of `Cc1ccc(CNC(=O)c2ccccc2N(C)S(C)(=O)=O)cc1`, the binding response (% of control) is reported as inconclusive: 80.1%. With `CCNC(=S)Nc1cccc(F)c1C` the binding response (% of control) was inconclusive: 75.6%. In the case of `COc1ccccc1/C=C/C=N/NC(=O)c1cccs1`, the binding response (% of control) is reported as inconclusive: 91.3%. With `Cc1cccc(-n2cc(-c3ccccc3)c3c(N4CCOCC4)ncnc32)c1` the binding response (% of control) was inactive: 102%. For `CSCCC(NC(N)=O)C(=O)NCc1ccccc1Cl` (stereo not given), the binding response (% of control) was inactive: 80.2%. For `COc1cccc(CN2CCN(C(=O)CCc3nnc(C4CCCCC4)o3)CC2=O)c1`, the binding response (% of control) was inconclusive: 86.3%. With `CN1CCN(C(=O)C23CC4CC(C)(CC(C)(C4)C2)C3)CC1` the binding response (% of control) was inconclusive: 152%. With `O=C(CSc1nnc(-c2ccncc2)o1)c1ccc2c(c1)OCCO2` the binding response (% of control) was inconclusive: 115%. In the case of `CCNC(=O)NC(=O)c1csc([N+](=O)[O-])c1`, the binding response (% of control) is reported as inconclusive: 133%. `CCN1/C(=C/C(C)=C/c2sc3ccccc3[n+]2CC)Sc2ccccc21` was tested, and the binding response (% of control) was inactive: 79.6%. With `Cc1cc(NS(=O)(=O)c2ccc(NC(=O)CCSc3ccc(F)cc3)cc2)nc(C)n1` the binding response (% of control) was inconclusive: 72.1%. For `CCOC(=O)c1c(O)c2cc(Cl)ccc2n(CC)c1=O`, the binding response (% of control) was inconclusive: -22.6%. With `CCOC(=O)c1ccc(NC(=O)CSc2nc3sc(C(=O)O)c(C)c3c(=O)[nH]2)cc1` the binding response (% of control) was inconclusive: 107%. With `O=C(O)c1cccc(N/N=C/c2ccc(F)c(F)c2)c1` the binding response (% of control) was inconclusive: 114%. For `CCC(=O)c1ccc(OC(C)C(=O)NC2(C#N)CCCCC2)cc1` (stereo not given), the binding response (% of control) was inactive: 97.8%. For `Cc1nn(C)c(C(=O)N/N=C/c2ccc(Br)cc2)c1Cl`, the binding response (% of control) was active: 40.1%. With `C=CCn1c(C)cc(-c2csc(NCC)n2)c1C` the binding response (% of control) was inconclusive: 69.9%. In the case of `Cc1sc(NC(=O)/C=C/c2ccco2)c(C(=O)O)c1C`, the binding response (% of control) is reported as inconclusive: 39.3%. `CN(C)/C=N/c1nc(-c2ccc3c(c2)OCO3)cs1` was tested, and the binding response (% of control) was inconclusive: 105%. In the case of `COc1cc(NC(=O)CCCl)cc(-n2cnnn2)c1`, the binding response (% of control) is reported as inconclusive: 112%. In the case of `Cc1cc(C)c([N+](=O)[O-])cc1NC(=O)CCS(=O)(=O)c1ccccc1`, the binding response (% of control) is reported as inconclusive: 161%. `CCC(C(=O)Nc1cccc(C(=O)O)c1C)c1ccccc1` (stereo not given) was tested, and the binding response (% of control) was inactive: 88.9%. `COC(=O)c1ccc(S(=O)(=O)N2CCCN(Cc3ccc(F)cc3)CC2)n1C` was tested, and the binding response (% of control) was inconclusive: 48.6%. With `COc1ccc(OC)c(-c2csc(NC(=O)C3COc4ccccc4O3)n2)c1` (stereo not given) the binding response (% of control) was inconclusive: 94.3%. For `COc1cccc(CN2CCN(C3CCOCC3)CC2CCO)c1` (stereo not given), the binding response (% of control) was inconclusive: 271%. For `CCN(CC(=O)NCc1ccc(Cl)cc1)C(=O)/C=C/c1ccco1`, the binding response (% of control) was inconclusive: 93.9%. In the case of `CCOCCCNC(=O)/C(C#N)=C/c1ccccc1F`, the binding response (% of control) is reported as inconclusive: 114%. With `Cc1cc(/C=N/NC(=O)c2ccccn2)c(C)n1-c1cccc([N+](=O)[O-])c1` the binding response (% of control) was inconclusive: 92.3%. With `Cc1cc([N+](=O)[O-])ccc1NCc1ccco1` the binding response (% of control) was inactive: 99.8%. With `C=CCOC(=O)C(=O)/C=C/c1ccc2c(c1)Cc1ccccc1-2` the binding response (% of control) was inactive: 97.4%. `CCCOc1ccc(/C=C/C(=O)O)cc1OC` was tested, and the binding response (% of control) was inconclusive: 119%. In the case of `CNS(=O)(=O)c1cccc(C(=O)OCC(=O)Nc2ccc(Cl)cc2F)c1`, the binding response (% of control) is reported as inconclusive: 98%. With `CC1(C)SC(=S)N(/N=C/c2cccnc2)C1N(O)C(=O)NC1CCCCC1` (stereo not given) the binding response (% of control) was inconclusive: 95.3%. In the case of `Cc1cccc(-n2ccnc2CN2CCC(CO)(Cc3ccccc3)CC2)c1`, the binding response (% of control) is reported as inconclusive: 96.3%. With `Cc1cccc(NC(=O)CSc2cc(C)c(C#N)c3nc4ccccc4n23)c1` the binding response (% of control) was inconclusive: 100%. `COC(=O)c1c(-c2snnc2C)n[nH]c1C` was tested, and the binding response (% of control) was inconclusive: 101%. In the case of `S=C(NCCN1CCOCC1)Nc1ccc(-c2nc3ccccc3[nH]2)cc1`, the binding response (% of control) is reported as inconclusive: 102%. With `CC(=O)c1ccc(OCc2ncc(C(F)(F)F)cc2Cl)cc1` the binding response (% of control) was inconclusive: 166%. With `COC(=O)[C@@H]1C[C@@]2(O)[C@@H](O)[C@@H](O)[C@@H](O)C[C@H]2N1Cc1ccc(-c2ccccc2)cc1` the binding response (% of control) was inconclusive: 95%. With `O=C(c1ccccc1)N1CCN2C(=O)c3ccccc3C12c1ccc(Cl)cc1` (stereo not given) the binding response (% of control) was inactive: 100%. With `COc1ccc(/C=N/Nc2nc(-c3ccc(C)cc3)c(NC(C)=O)s2)cc1` the binding response (% of control) was inconclusive: 120%. With `Cc1ccc(-c2cc(Cc3cccs3)c(=O)[nH]n2)cc1` the binding response (% of control) was inconclusive: 137%. For `Cc1ccc(CC2S/C(=N/N=C/c3ccco3)NC2=O)cc1` (stereo not given), the binding response (% of control) was inconclusive: 101%. `CCCCC1(C)OC(=O)C(=Cc2ccc(-c3ccc(Cl)c(C(=O)O)c3)o2)C(=O)O1` (stereo not given) was tested, and the binding response (% of control) was inconclusive: 129%. In the case of `COc1cc(/C=C/c2ccc3c(Br)cc(Br)c(O)c3n2)ccc1O`, the binding response (% of control) is reported as inconclusive: 94%. With `CSc1nnc2c(n1)OC=Nc1ccc(Br)cc1-2` the binding response (% of control) was inconclusive: 89.2%. In the case of `CCOc1cc(/C=N/NC(=O)CNc2ccc(C)cc2)ccc1OC(=O)c1ccccc1`, the binding response (% of control) is reported as inactive: 98.1%. For `CN1N=C2c3ccccc3CCCC2C1c1ccc(F)cc1` (stereo not given), the binding response (% of control) was inconclusive: 281%. For `CC(C)c1nc2sc3c(=S)nc[nH]c3c2c2c1CCC2`, the binding response (% of control) was inconclusive: 89%. In the case of `Cc1ccc2nc(SCC(=O)Nc3cccc(S(=O)(=O)NC4=NCCCCC4)c3)[nH]c2c1`, the binding response (% of control) is reported as inconclusive: 124%. `COc1ccc(C2C(C(=O)NCCCN3CCOCC3)c3ccccc3C(=O)N2c2ccc(OC)cc2)cc1` (stereo not given) was tested, and the binding response (% of control) was inconclusive: 119%. For `CC1(OC(=O)CCc2ccccc2)C(=O)C=C2C=C(c3ccc(C#N)cc3)N(CCN3CCOCC3)C=C2C1=O` (stereo not given), the binding response (% of control) was inconclusive: 134%. `CC(C)=NNc1nc2c(c(=O)n(C)c(=O)n2C)n1C` was tested, and the binding response (% of control) was inconclusive: 101%. `COc1ccc(C(=O)C2CCCN(Cc3cccn3-c3ccc(Cl)cn3)C2)c(OC)c1` (stereo not given) was tested, and the binding response (% of control) was inactive: 99.1%. With `O=C(Nc1nnc(C(F)(F)F)s1)c1ccc(Br)s1` the binding response (% of control) was inconclusive: 98.5%. `O=[N+]([O-])c1cc(Cl)c2cccnc2c1O` was tested, and the binding response (% of control) was inconclusive: 86.4%. In the case of `Clc1ccc(-c2ccn[nH]2)cc1`, the binding response (% of control) is reported as inconclusive: 110%. In the case of `CCn1nc(C)c(/C=N/NC(=O)CSc2ccccn2)c1C`, the binding response (% of control) is reported as inconclusive: 83%. In the case of `CC(C)(O)P(=O)(O)CCc1ccccc1`, the binding response (% of control) is reported as inconclusive: 109%. In the case of `NS(=O)(=O)c1ccc(-c2ccc(/C=N/NC(=O)c3ccc([N+](=O)[O-])cc3)o2)cc1`, the binding response (% of control) is reported as inconclusive: 225%. `COc1cc(CNc2ccc(N3CCN(C(C)=O)CC3)cc2)ccc1OCc1ccc(F)cc1` was tested, and the binding response (% of control) was inconclusive: 108%. In the case of `CC1(C)CC(=O)C=C(NCCc2c[nH]c3ccccc23)C1`, the binding response (% of control) is reported as inconclusive: 102%. `COc1ccc(S(N)(=O)=O)cc1C(=O)N1CCCC1` was tested, and the binding response (% of control) was inconclusive: 110%. In the case of `CCNC(=O)Cc1c(OC)ccc2cc(Br)ccc12`, the binding response (% of control) is reported as inconclusive: 88.5%. In the case of `O=C(O)c1ccc(NC2=C(Cl)C(=O)c3ccccc3C2=O)cc1`, the binding response (% of control) is reported as inconclusive: 89.8%. For `CCOC(=O)C1CCN(c2c(NCc3ccc(C(=O)Nc4ccc(C)cc4)cc3)c(=O)c2=O)CC1`, the binding response (% of control) was inconclusive: 79.5%. In the case of `CC(=O)Nc1ccc(NC(=O)CCc2nc3ccccc3c(=O)[nH]2)cc1`, the binding response (% of control) is reported as inactive: 93%. In the case of `CC1(c2nnc(-c3ccc(Cl)cc3)o2)CC(c2ccc(Cl)cc2)=NO1` (stereo not given), the binding response (% of control) is reported as inconclusive: 102%. For `CCOC(=O)c1cnc(-n2nc(C)cc2C)nc1NNc1ncc(-c2ccccc2)cn1`, the binding response (% of control) was inconclusive: 102%. With `Cc1cccn2c(NC(=O)c3cccs3)c(-c3ccccc3)nc12` the binding response (% of control) was inactive: 102%. In the case of `COCCN1C(=O)N[C@@H](c2cccc(F)c2)C(C(=O)OC)=C1C`, the binding response (% of control) is reported as inconclusive: 115%. For `CCCCc1ccc(NC(=S)NCCN2CCOCC2)cc1`, the binding response (% of control) was inactive: 100%. For `c1ccc2c(Nc3nncs3)c3ccccc3nc2c1`, the binding response (% of control) was inconclusive: 88.6%. In the case of `Cc1cc(Sc2ncnc(N)c2[N+](=O)[O-])ncn1`, the binding response (% of control) is reported as inconclusive: 102%. With `NC(=O)[C@H]1CC2(CC(c3cccc(NC(=O)COc4ccc(Cl)cc4)c3)=NO2)CN1C(=O)C(c1ccccc1)c1ccccc1` (stereo not given in full) the binding response (% of control) was inconclusive: 117%.
